Measurements from publication PMC4821994.
Results are given in words; binding and its absence hold for the method and conditions named. For part of these data: Binding seen in cells or lysates may run through a third protein. Some entries that bind do so weakly or less than the wild type. For part of these data: Where a sequence is shown, tags or fusion partners need not be part of it.

By UniProt entry, the sequences of proteins in these tests, tags left out.
UniProt Q08775: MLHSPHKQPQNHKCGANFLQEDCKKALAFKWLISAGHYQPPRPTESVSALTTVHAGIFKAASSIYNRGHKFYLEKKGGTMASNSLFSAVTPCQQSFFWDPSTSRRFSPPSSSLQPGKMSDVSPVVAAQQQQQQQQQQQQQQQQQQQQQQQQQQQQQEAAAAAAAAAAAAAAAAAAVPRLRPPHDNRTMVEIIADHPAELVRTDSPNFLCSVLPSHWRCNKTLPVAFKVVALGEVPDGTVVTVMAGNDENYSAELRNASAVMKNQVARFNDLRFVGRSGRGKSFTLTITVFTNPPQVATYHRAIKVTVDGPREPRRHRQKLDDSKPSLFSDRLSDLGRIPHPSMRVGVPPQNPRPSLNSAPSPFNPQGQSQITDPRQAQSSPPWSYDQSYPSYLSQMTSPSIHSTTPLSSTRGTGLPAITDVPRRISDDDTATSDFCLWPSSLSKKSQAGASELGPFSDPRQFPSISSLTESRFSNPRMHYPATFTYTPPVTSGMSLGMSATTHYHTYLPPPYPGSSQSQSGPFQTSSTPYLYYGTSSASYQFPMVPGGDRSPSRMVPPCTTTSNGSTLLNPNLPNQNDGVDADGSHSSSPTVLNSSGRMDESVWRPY

How the values were obtained:
[1] = target: Flag-RUNX2 (UniProt Q08775); test: co-IP; Flag-RUNX2 and Myc-Med23 co-transfected into 293T cells; lysis buffer 1% NP-40, 10% glycerol, 135 mM NaCl, 20 mM Tris pH 8.0; IP with anti-Flag (M2) at 4 °C overnight, immunoblot with anti-Myc
[2] = target: endogenous RUNX2 (mouse (endogenous in MC3T3E1)) (UniProt Q08775); test: co-IP; endogenous proteins in MC3T3E1 cells cultured 4 days with 100 ng/ml BMP2, ascorbic acid and beta-glycerophosphate, MG132 (10 uM) for 2 h before harvest; IP with anti-RUNX2, anti-MED23 or control IgG, immunoblot with anti-MED23 and anti-Runx2
[3] = target: GST-RUNX2 (UniProt Q08775); test: pull-down; purified GST or GST-Runx2 incubated with purified MED23, GST pull-down; bound proteins analysed by SDS-10% PAGE and immunoblot with anti-GST and anti-MED23; both purified

B1: Myc-Med23 (protein, UniProt Q80YQ2 1-1367)
chain: METQLQSIFEEVVKTEIIEEAFPGMFMDTPEDEKTKLISCLAAFRQFWSGLSQESHEQCVQWIVKFIHGQHSPKRISFLYDCLAMAVETGLLPPRMVCESLINSDSLEWERTQLWALTFKLVRKIIGGVDYKGVRDLLKAILEKILTIPNTVSSAVVQQLLAAREVIAYILERNACLLPAYFAVTEIRKLYPEGKLPHWLLGNLVSDFVDTFRPTARINSICGRCSLLPVVNNSGAICNSWKLDPATLRFPLKGLLPYDKDLFEPQTALLRYVLEQPYSRDMVCNMLGLNKQHKQRCPVLEDQLVDLVVYAMERSETEEKFDDGGTSQLLWQHLSSQLIFFVLFQFASFPHMVLSLHQKLAGRGLIKGRDHLMWVLLQFISGSIQKNALADFLPVMKLFDLLYPEKECIPVPDINKPQSTHAFAMTCIWIHLNRKAQNGDSTLQIPIPHSLKLHHEFLQQSLRNKSLQMNDYKIALLCNAYSTNSECFTLPMGALVETIYGNGIMRVPLPGTSCLASASVTPLPMNLLDSLTVHAKMSLIHSIATRVIKLAHTKSSVALAPALVETYSRLLVYMEIESLGIKGFISQLLPTVFKSHAWGILHTLLEMFSHRMHHIQPHYRVQLLSHLHTLAAVAQTNQNQLHLCVESTALRLITALGSSEVQPQFTRFLNDPKTVLSAESEELNRALILTLARATHVTDFFTGSDSIQGTWCKDILQTIMNFTPHNWASHTLSCFPAPLQAFFKQNNVPQESRFNLKKNVEEEYRKWKSMTDENEIITQFSVQGFPPLFLCLLWKMLLETDHISQIGYKVLERIGARALVAHVRTFADFLVYEFSTSAGGQQLNKCIEILNDMVWKYNIVTLDRLILCLAMRSHEGNEAQVCYFIIQLLLLKPNDFRNRVSDFVKENSPEHWLQSDWHTKHMSYHKKYPEKLYFEGLAEQVDPPVPIQSPYLPIYFGNVCLRFLPVFDIVIHRFLELLPVSKSLETLLDHLGGLYKFHDRPVTYLYNTLHYYEMCLRNRDHLKRKLVHAIIGSLKDNRPQGWCLSDTYLKHAMNAREDNPWVPEDSYYCKLIGRLVDTMAGKSPGPFPNCDWRFNEFPNPAAHALHVTCVELMALAVPGKDVGNALLNVVLKSQPLVPRENITAWMNAIGLIITALPEPYWIVLHDRIVNVISSSSLTSETEWVGYPFRLFDFTACHQSYSEMSCSYTLALAHAVWHHSSIGQLSLIPKFLTEALLPVVKTEFQLLYVYHLVGPFLQRFQQERTRCMIEIGVAFYDMLLNVDQCSTHLNYMDPICDFLYHMKYMFTGDSVKEQVEKIICNLKPALKLRLRFITHISKMEPAVPPQALNSGSPAPQSNQVPASLPVTQ
binding [1]: binds

B2: endogenous MED23 (protein, UniProt Q80YQ2 1-1367)
chain: METQLQSIFEEVVKTEIIEEAFPGMFMDTPEDEKTKLISCLAAFRQFWSGLSQESHEQCVQWIVKFIHGQHSPKRISFLYDCLAMAVETGLLPPRMVCESLINSDSLEWERTQLWALTFKLVRKIIGGVDYKGVRDLLKAILEKILTIPNTVSSAVVQQLLAAREVIAYILERNACLLPAYFAVTEIRKLYPEGKLPHWLLGNLVSDFVDTFRPTARINSICGRCSLLPVVNNSGAICNSWKLDPATLRFPLKGLLPYDKDLFEPQTALLRYVLEQPYSRDMVCNMLGLNKQHKQRCPVLEDQLVDLVVYAMERSETEEKFDDGGTSQLLWQHLSSQLIFFVLFQFASFPHMVLSLHQKLAGRGLIKGRDHLMWVLLQFISGSIQKNALADFLPVMKLFDLLYPEKECIPVPDINKPQSTHAFAMTCIWIHLNRKAQNGDSTLQIPIPHSLKLHHEFLQQSLRNKSLQMNDYKIALLCNAYSTNSECFTLPMGALVETIYGNGIMRVPLPGTSCLASASVTPLPMNLLDSLTVHAKMSLIHSIATRVIKLAHTKSSVALAPALVETYSRLLVYMEIESLGIKGFISQLLPTVFKSHAWGILHTLLEMFSHRMHHIQPHYRVQLLSHLHTLAAVAQTNQNQLHLCVESTALRLITALGSSEVQPQFTRFLNDPKTVLSAESEELNRALILTLARATHVTDFFTGSDSIQGTWCKDILQTIMNFTPHNWASHTLSCFPAPLQAFFKQNNVPQESRFNLKKNVEEEYRKWKSMTDENEIITQFSVQGFPPLFLCLLWKMLLETDHISQIGYKVLERIGARALVAHVRTFADFLVYEFSTSAGGQQLNKCIEILNDMVWKYNIVTLDRLILCLAMRSHEGNEAQVCYFIIQLLLLKPNDFRNRVSDFVKENSPEHWLQSDWHTKHMSYHKKYPEKLYFEGLAEQVDPPVPIQSPYLPIYFGNVCLRFLPVFDIVIHRFLELLPVSKSLETLLDHLGGLYKFHDRPVTYLYNTLHYYEMCLRNRDHLKRKLVHAIIGSLKDNRPQGWCLSDTYLKHAMNAREDNPWVPEDSYYCKLIGRLVDTMAGKSPGPFPNCDWRFNEFPNPAAHALHVTCVELMALAVPGKDVGNALLNVVLKSQPLVPRENITAWMNAIGLIITALPEPYWIVLHDRIVNVISSSSLTSETEWVGYPFRLFDFTACHQSYSEMSCSYTLALAHAVWHHSSIGQLSLIPKFLTEALLPVVKTEFQLLYVYHLVGPFLQRFQQERTRCMIEIGVAFYDMLLNVDQCSTHLNYMDPICDFLYHMKYMFTGDSVKEQVEKIICNLKPALKLRLRFITHISKMEPAVPPQALNSGSPAPQSNQVPASLPVTQ
binding [2]: binds

B3: His-Flag-MED23 (protein, UniProt Q80YQ2 1-1367)
chain: METQLQSIFEEVVKTEIIEEAFPGMFMDTPEDEKTKLISCLAAFRQFWSGLSQESHEQCVQWIVKFIHGQHSPKRISFLYDCLAMAVETGLLPPRMVCESLINSDSLEWERTQLWALTFKLVRKIIGGVDYKGVRDLLKAILEKILTIPNTVSSAVVQQLLAAREVIAYILERNACLLPAYFAVTEIRKLYPEGKLPHWLLGNLVSDFVDTFRPTARINSICGRCSLLPVVNNSGAICNSWKLDPATLRFPLKGLLPYDKDLFEPQTALLRYVLEQPYSRDMVCNMLGLNKQHKQRCPVLEDQLVDLVVYAMERSETEEKFDDGGTSQLLWQHLSSQLIFFVLFQFASFPHMVLSLHQKLAGRGLIKGRDHLMWVLLQFISGSIQKNALADFLPVMKLFDLLYPEKECIPVPDINKPQSTHAFAMTCIWIHLNRKAQNGDSTLQIPIPHSLKLHHEFLQQSLRNKSLQMNDYKIALLCNAYSTNSECFTLPMGALVETIYGNGIMRVPLPGTSCLASASVTPLPMNLLDSLTVHAKMSLIHSIATRVIKLAHTKSSVALAPALVETYSRLLVYMEIESLGIKGFISQLLPTVFKSHAWGILHTLLEMFSHRMHHIQPHYRVQLLSHLHTLAAVAQTNQNQLHLCVESTALRLITALGSSEVQPQFTRFLNDPKTVLSAESEELNRALILTLARATHVTDFFTGSDSIQGTWCKDILQTIMNFTPHNWASHTLSCFPAPLQAFFKQNNVPQESRFNLKKNVEEEYRKWKSMTDENEIITQFSVQGFPPLFLCLLWKMLLETDHISQIGYKVLERIGARALVAHVRTFADFLVYEFSTSAGGQQLNKCIEILNDMVWKYNIVTLDRLILCLAMRSHEGNEAQVCYFIIQLLLLKPNDFRNRVSDFVKENSPEHWLQSDWHTKHMSYHKKYPEKLYFEGLAEQVDPPVPIQSPYLPIYFGNVCLRFLPVFDIVIHRFLELLPVSKSLETLLDHLGGLYKFHDRPVTYLYNTLHYYEMCLRNRDHLKRKLVHAIIGSLKDNRPQGWCLSDTYLKHAMNAREDNPWVPEDSYYCKLIGRLVDTMAGKSPGPFPNCDWRFNEFPNPAAHALHVTCVELMALAVPGKDVGNALLNVVLKSQPLVPRENITAWMNAIGLIITALPEPYWIVLHDRIVNVISSSSLTSETEWVGYPFRLFDFTACHQSYSEMSCSYTLALAHAVWHHSSIGQLSLIPKFLTEALLPVVKTEFQLLYVYHLVGPFLQRFQQERTRCMIEIGVAFYDMLLNVDQCSTHLNYMDPICDFLYHMKYMFTGDSVKEQVEKIICNLKPALKLRLRFITHISKMEPAVPPQALNSGSPAPQSNQVPASLPVTQ
binding [3]: binds
